The target in the assay is β1 integrin (human) (UniProt P05556). The experiment in a line: co-immunoprecipitation from HCC lysates with a β1 antibody, Western blot for αv.

Amino acid sequences for entries named in this document (tags omitted). Residues count along the entry.
UniProt P05556: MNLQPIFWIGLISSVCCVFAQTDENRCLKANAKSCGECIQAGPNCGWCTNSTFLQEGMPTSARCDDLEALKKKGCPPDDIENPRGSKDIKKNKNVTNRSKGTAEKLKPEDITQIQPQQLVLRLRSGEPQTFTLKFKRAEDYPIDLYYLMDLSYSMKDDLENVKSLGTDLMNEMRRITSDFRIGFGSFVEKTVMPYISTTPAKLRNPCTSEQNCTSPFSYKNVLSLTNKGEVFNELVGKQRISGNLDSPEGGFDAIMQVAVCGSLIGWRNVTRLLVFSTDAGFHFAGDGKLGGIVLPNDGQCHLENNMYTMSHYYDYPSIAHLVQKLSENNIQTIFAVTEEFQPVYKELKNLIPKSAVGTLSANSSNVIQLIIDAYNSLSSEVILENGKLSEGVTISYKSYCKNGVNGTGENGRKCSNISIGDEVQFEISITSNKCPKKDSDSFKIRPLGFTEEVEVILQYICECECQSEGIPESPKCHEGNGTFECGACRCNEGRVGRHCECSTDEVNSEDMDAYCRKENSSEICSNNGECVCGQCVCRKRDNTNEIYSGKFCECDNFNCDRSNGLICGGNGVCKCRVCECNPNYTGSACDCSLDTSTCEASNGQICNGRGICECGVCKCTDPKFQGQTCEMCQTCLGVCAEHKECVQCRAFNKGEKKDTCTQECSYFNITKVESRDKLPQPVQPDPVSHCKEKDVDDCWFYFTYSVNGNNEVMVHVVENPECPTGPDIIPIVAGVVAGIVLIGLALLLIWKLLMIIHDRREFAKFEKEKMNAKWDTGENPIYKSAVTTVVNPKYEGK
UniProt P06756, residues 31-1048: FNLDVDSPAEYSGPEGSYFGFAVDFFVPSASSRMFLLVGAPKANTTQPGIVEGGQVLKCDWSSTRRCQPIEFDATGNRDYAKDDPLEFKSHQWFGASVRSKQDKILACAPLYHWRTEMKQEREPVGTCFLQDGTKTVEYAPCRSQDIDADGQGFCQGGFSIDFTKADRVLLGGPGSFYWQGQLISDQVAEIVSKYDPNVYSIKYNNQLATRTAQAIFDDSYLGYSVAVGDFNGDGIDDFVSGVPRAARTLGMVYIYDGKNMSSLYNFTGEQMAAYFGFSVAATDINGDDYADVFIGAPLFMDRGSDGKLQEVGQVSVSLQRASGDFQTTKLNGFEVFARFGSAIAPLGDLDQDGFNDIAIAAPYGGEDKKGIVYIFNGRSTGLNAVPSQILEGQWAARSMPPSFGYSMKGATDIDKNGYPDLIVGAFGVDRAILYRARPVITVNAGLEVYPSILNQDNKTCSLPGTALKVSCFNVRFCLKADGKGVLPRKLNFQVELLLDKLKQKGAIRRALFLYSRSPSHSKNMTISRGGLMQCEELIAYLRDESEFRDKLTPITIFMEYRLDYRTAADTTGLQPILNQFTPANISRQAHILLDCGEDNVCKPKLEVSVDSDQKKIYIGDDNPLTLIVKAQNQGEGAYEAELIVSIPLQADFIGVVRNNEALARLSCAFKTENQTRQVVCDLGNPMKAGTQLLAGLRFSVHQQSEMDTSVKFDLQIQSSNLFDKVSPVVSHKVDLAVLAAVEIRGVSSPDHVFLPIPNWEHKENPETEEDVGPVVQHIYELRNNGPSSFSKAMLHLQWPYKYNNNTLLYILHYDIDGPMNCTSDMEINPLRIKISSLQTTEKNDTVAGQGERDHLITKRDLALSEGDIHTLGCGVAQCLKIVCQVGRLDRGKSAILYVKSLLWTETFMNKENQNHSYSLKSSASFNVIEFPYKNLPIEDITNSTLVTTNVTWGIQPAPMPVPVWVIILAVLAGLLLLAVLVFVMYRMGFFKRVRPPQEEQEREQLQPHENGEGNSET

The values below come from patent US20080193444A1.

These are yes or no findings as the source states them, for the method shown. Binding seen in cells or lysates may run through a third protein. Some binding calls cover weakened binding; strength is not graded here.

In the case of “αv integrin (from UniProt P06756 31-1048) (receptor)”, the binding result is on record as “binds”.
